{
  "source": "PubChem BioAssay AID540256",
  "about": "(National Center for Advancing Translational Sciences (NCATS), 2011)",
  "note": "Out of some 300,000 compounds screened, about 3,700 (1.2%) were called active. The shares of active, inactive and inconclusive entries below differ from those in the screen. Calls follow the shape of the full dose curve; tested in HEK293 cells. Potencies beside an inconclusive call are fits to weak or partial responses and may not hold up. % is scaled to controls: 0 for no effect and ±100 for the full control effect; potency is read from the fitted curve at half-maximal effect.",
  "data": [
    {"assay": "qHTS for Inhibitors of binding or entry into cells for Lassa Virus; also: nearly all actives have a fitted effect of over 50% in size", "conditions": "Lassa virus pseudotype entry inhibition, cell reporter; activity change, negative = inhibition: at 37.9 µM (top of the series) unless noted", "values": [
      {"compound": "Fc1cccc(CSc2ccc(-c3ccc4c(c3)OCO4)nn2)c1", "Potency": "inconclusive: 15.8 µM [inhibitor, partial curve, poor fit]"},
      {"compound": "COC(=O)c1ccc(NC(=O)CSc2nc3ccccc3c(=O)[nH]2)cc1", "Potency": "inconclusive: 0.82 µM [inhibitor, partial curve, poor fit]"},
      {"compound": "CCN(CC)S(=O)(=O)c1cnccc1N1CCN(c2cccc(Cl)c2)CC1", "Potency": "inconclusive: 18.4 µM [inhibitor, single point]"},
      {"compound": "O=C(Cc1ccccc1)OCC(=O)c1ccccc1", "activity change, negative = inhibition": "inactive: 14.9% [at 46.1 µM]"},
      {"compound": "Fc1ccc(CSc2ncnc3ccccc23)cc1", "activity change, negative = inhibition": "inactive: -20.4%"},
      {"compound": "CCCNC(=O)c1ccccc1NC(=O)c1ccc(CSc2ccccc2)cc1", "Potency": "inconclusive: 17.8 µM [inhibitor, single point]"},
      {"compound": "O=C(C[n+]1cccc(CNC(=O)c2ccc(OC(F)F)cc2)c1)Nc1ccc(F)cc1", "activity change, negative = inhibition": "inactive: 1.04%"},
      {"compound": "O=C(N/N=C1\\CCCc2ccccc21)c1ccc([N+](=O)[O-])cc1Cl", "activity change, negative = inhibition": "inactive: -8.78%"},
      {"compound": "CN1CCc2c(sc(/N=C/c3cc(Cl)ccc3O)c2C#N)C1", "Potency": "inconclusive: 4.47 µM [activator, full curve, poor fit]"},
      {"compound": "CCCN(CCC)CCNC(=O)Cn1cnc2sc(C)c(S(=O)(=O)N3CCN(c4ccccc4OC)CC3)c2c1=O", "activity change, negative = inhibition": "inactive: 23.8% [at 46.1 µM]"},
      {"compound": "COc1ccccc1NC(=O)N1CCOc2ccccc21", "activity change, negative = inhibition": "inactive: 6% [at 46.1 µM]"},
      {"compound": "COc1ccccc1NC(=O)Cn1c(=O)n(Cc2nc(C)no2)c(=O)c2cc3c(cc21)OCO3", "activity change, negative = inhibition": "inactive: 2.15% [at 46.1 µM]"},
      {"compound": "Clc1nc(Nc2ccccc2)nc(Nc2ccccc2)n1", "activity change, negative = inhibition": "inactive: 5.8%"},
      {"compound": "Cc1ccc(CNC(=O)c2ccc(CSCc3c(F)cccc3Cl)o2)cc1", "Potency": "inconclusive: 7.08 µM [inhibitor, full curve, poor fit]"},
      {"compound": "CC(C)(C)C1CCC(C(=O)OCC(=O)N2CCOCC2)CC1", "note": "(stereo unspecified)", "Potency": "inconclusive: 0.316 µM [inhibitor, partial curve, poor fit]"},
      {"compound": "CCC(C)(c1nnnn1-c1c(C)cccc1C)N(N=O)c1ccccc1Cl", "note": "(stereo unspecified)", "Potency": "inconclusive: 35.5 µM [inhibitor, single point]"},
      {"compound": "O=[N+]([O-])c1cc(S(=O)(=O)Oc2ccccc2)ccc1Cl", "Potency": "inconclusive: 35.5 µM [inhibitor, single point]"},
      {"compound": "CCC(C)NC(=O)CSc1nc2ccsc2c(=O)n1NC(=O)c1ccccc1", "note": "(stereo unspecified)", "activity change, negative = inhibition": "inactive: 2.44%"},
      {"compound": "C=C(C)CSc1nncn1/N=C/c1ccc(OC)cc1", "Potency": "inconclusive: 5.8 µM [inhibitor, single point]"},
      {"compound": "CC1(C)CC(=O)c2cc(C(=O)NNc3ccccc3)c(=O)n(-c3ccccc3)c2C1", "Potency": "inconclusive: 2.82 µM [inhibitor, full curve]"},
      {"compound": "CCc1c(C(C)S(=O)(=O)c2ccc(C)cc2)[nH]c(=O)n1-c1ccc(OC(F)(F)F)cc1", "note": "(stereo unspecified)", "Potency": "inconclusive: 15.8 µM [inhibitor, single point]"},
      {"compound": "Cc1ccc(-n2ncc3c(SCC(N)=O)ncnc32)cc1C", "activity change, negative = inhibition": "inactive: -3.84%"},
      {"compound": "O=C(OCc1ccc([N+](=O)[O-])cc1)c1cc([N+](=O)[O-])ccc1N1CCOCC1", "Potency": "inconclusive: 1.78 µM [inhibitor, single point]"},
      {"compound": "Cc1cccc(NC(=O)NC2CCCc3ccccc32)c1", "note": "(stereo unspecified)", "Potency": "inconclusive: 1 µM [inhibitor, single point]"},
      {"compound": "COc1ccc(N2CCN(C(c3cc(OC)ccc3OC)c3nnnn3Cc3ccco3)CC2)cc1", "note": "(stereo unspecified)", "Potency": "inconclusive: 8.2 µM [inhibitor, partial curve, poor fit]"},
      {"compound": "FC(F)(F)c1cccc(NC(=S)NCc2ccccc2)c1", "Potency": "inconclusive: 0.891 µM [inhibitor, single point]"},
      {"compound": "Cc1cc(OC(=O)Cc2cccc3ccccc23)c([N+](=O)[O-])c(=O)[nH]1", "Potency": "inconclusive: 17.8 µM [activator, partial curve, poor fit]"},
      {"compound": "O=C(Nc1ccc(NC(=O)C2CCCCC2)nc1)c1ccccn1", "Potency": "inconclusive: 14.1 µM [inhibitor, single point]"},
      {"compound": "CCCCN(C)CC(O)Cn1cc(/C=C/C(=O)c2ccc(OCC)cc2)c2ccccc21", "note": "(stereo unspecified)", "Potency": "inconclusive: 35.5 µM [inhibitor, single point]"},
      {"compound": "CC(=O)C1=C(O)C(=O)N(CCCCCC(=O)O)C1c1ccc(N(C)C)cc1", "note": "(stereo unspecified)", "Potency": "inconclusive: 1.41 µM [activator, full curve, poor fit]"},
      {"compound": "CCCCC(=O)Nc1cccc(-c2nc3ccccc3s2)c1", "Potency": "inconclusive: 6.31 µM [activator, partial curve, poor fit]"},
      {"compound": "COc1ccc(COC(=O)NNC(=O)c2ccc(OC)cc2)cc1", "Potency": "active: 1.3 µM"},
      {"compound": "COc1ccc(N(CC(=O)NCc2ccco2)C(=O)CNS(=O)(=O)c2ccc(Cl)cc2)cc1", "Potency": "inconclusive: 0.562 µM [activator, single point]"},
      {"compound": "c1coc(-c2nnc(-c3ccco3)nn2)c1", "activity change, negative = inhibition": "inactive: 25.2%"},
      {"compound": "Cc1nc(N2CCOCC2)c2c(C)c(C(=O)Nc3ccc(F)cc3F)sc2n1", "Potency": "inconclusive: 35.5 µM [inhibitor, single point]"},
      {"compound": "COC(=O)C1=CN(C(C)c2ccccc2)C=C(C(=O)OC)C1c1cc(OC)c(OC)c(OC)c1", "note": "(stereo unspecified)", "Potency": "inconclusive: 2.24 µM [inhibitor, full curve]"},
      {"compound": "CN(CCOc1ccc(Cl)cc1)C(=O)c1cc(-c2ccco2)nc2ccccc12", "Potency": "inconclusive: 17.8 µM [inhibitor, single point]"},
      {"compound": "COc1ccc(-c2csc(N3C(=O)C4C5c6ccccc6C(c6ccccc65)C4C3=O)n2)cc1", "note": "(stereo unspecified)", "activity change, negative = inhibition": "inactive: 5.71%"},
      {"compound": "Cc1ccc(SCC(=O)Nc2cc(S(=O)(=O)N3CCCCC3)ccc2C)cc1", "Potency": "inconclusive: 25.1 µM [inhibitor, single point]"},
      {"compound": "CC(C)CNC(=O)c1ccccc1NC(=O)CN(c1ccc2c(c1)OCCO2)S(C)(=O)=O", "Potency": "inconclusive: 16.4 µM [inhibitor, single point]"},
      {"compound": "CC(=O)C1=NN(c2ccccc2)C2(S1)S/C(=C\\c1ccccc1)C(=O)N2c1ccccc1", "note": "(stereo unspecified)", "Potency": "inconclusive: 2.24 µM [inhibitor, full curve]"},
      {"compound": "Cc1nn(-c2ccccc2)c2sc(C(=O)N(CC(=O)NC3CCCC3)Cc3ccco3)cc12", "Potency": "inconclusive: 11.2 µM [inhibitor, partial curve, poor fit]"},
      {"compound": "CC1=NNC(=O)/C1=C\\c1cn(-c2ccccc2)nc1-c1cccs1", "Potency": "inconclusive: 29.1 µM [inhibitor, single point]"},
      {"compound": "Cc1nc2ccc(NC(=O)c3cc(Cl)ccn3)cc2s1", "Potency": "inconclusive: 6.31 µM [inhibitor, full curve, poor fit]"},
      {"compound": "CCn1cc(C(=O)NC2CC(C)(C)Cc3c2cnn3-c2cccc(F)c2)cn1", "note": "(stereo unspecified)", "Potency": "inconclusive: 6.31 µM [activator, single point]"},
      {"compound": "FC(F)Oc1ccccc1/C=N/n1cnc2ccccc21", "activity change, negative = inhibition": "inactive: 8.08%"},
      {"compound": "CC(C)Cc1nnc(NC(=O)CC(=O)Nc2ccccc2C(=O)O)s1", "Potency": "inconclusive: 22.4 µM [inhibitor, single point]"},
      {"compound": "CCCCc1ccc(NC(=O)CN(C)CC(=O)Nc2ccccc2Cl)cc1", "activity change, negative = inhibition": "inactive: -19.6% [at 46.1 µM]"},
      {"compound": "CCCNC(=O)OCCC12CC3CC(CC(C3)C1)C2", "Potency": "inconclusive: 7.08 µM [inhibitor, partial curve]"},
      {"compound": "Cc1onc(-c2ccccc2)c1C(=O)NCCc1ccc(S(N)(=O)=O)cc1", "activity change, negative = inhibition": "inactive: 13.9%"},
      {"compound": "CCN(c1ccc(NC(=O)COC(=O)c2ccc3ccccc3n2)cc1)C(C)C", "Potency": "inconclusive: 32.6 µM [activator, single point]"},
      {"compound": "Cc1cc(C)c(S(=O)(=O)N2CCN(C(=O)c3c(C)nn(-c4ccccc4)c3Cl)CC2)c(C)c1", "Potency": "inconclusive: 35.5 µM [inhibitor, single point]"},
      {"compound": "CCOc1ccccc1NC(=O)CSc1nnc(-c2ccccn2)n1Cc1ccco1", "activity change, negative = inhibition": "inactive: -0.551%"},
      {"compound": "CCOc1ccc(CN2CCC(n3nccc3NC(=O)C3CC3)CC2)cc1CO", "Potency": "inconclusive: 11.2 µM [activator, partial curve, poor fit]"},
      {"compound": "COc1cccc(C2NC(=S)NC(C)=C2C(=O)c2ccccc2)c1OC", "note": "(stereo unspecified)", "Potency": "inconclusive: 5.62 µM [inhibitor, partial curve, poor fit]"},
      {"compound": "CCOc1cc(/C=C2/SC(=Nc3ccccc3)N(Cc3cccnc3)C2=O)ccc1OCC#N", "Potency": "inconclusive: 11.2 µM [inhibitor, partial curve]"},
      {"compound": "CCCC(C)NC(=O)COC(=O)c1cc(Br)c(Br)s1", "note": "(stereo unspecified)", "activity change, negative = inhibition": "inactive: 2.87%"},
      {"compound": "CCn1c(=O)c(C(=O)NNC(=O)c2ccccc2Br)c(O)c2ccccc21", "Potency": "inconclusive: 22.4 µM [inhibitor, single point]"},
      {"compound": "COc1cccc(C(=O)Cn2c(NCCO)nc3ccccc32)c1", "activity change, negative = inhibition": "inactive: 3.02%"},
      {"compound": "COC(=O)c1ccc(CNC(=O)c2ccc3c(c2)OCCO3)cc1", "Potency": "inconclusive: 7.08 µM [activator, full curve, poor fit]"},
      {"compound": "O=c1c2c(nc3c(-c4cccc(Br)c4)c[nH]n13)CCCC2", "activity change, negative = inhibition": "inactive: 1.86%"},
      {"compound": "COc1ccc(N(C(=O)CNC(=O)c2ccco2)C(C(=O)NCC2CCCO2)c2ccccc2)cc1", "note": "(stereo unspecified)", "Potency": "inconclusive: 2 µM [inhibitor, single point]"},
      {"compound": "CC1C=CC=CC=CC=CC=CC=CC=CC(OC2OC(C)C(O)C(N)C2O)CC2OC(O)(CC(O)CC(O)C(O)CCC(O)CC(O)CC(=O)OC(C)C(C)C1O)CC(O)C2C(=O)O", "note": "(stereo unspecified)", "Potency": "inconclusive: 10 µM [inhibitor, partial curve, poor fit]"},
      {"compound": "Cc1ccc(NN2C(=O)C=CC2=O)cc1", "activity change, negative = inhibition": "inactive: 3.89%"},
      {"compound": "CS(=O)(=O)Nc1ccc(C2=NN(C(=O)c3ccco3)C(c3cccc(F)c3)C2)cc1", "note": "(stereo unspecified)", "Potency": "inconclusive: 35.5 µM [inhibitor, single point]"},
      {"compound": "O=C(Nc1ccccc1)N(C1=NCCC1)c1ccc(OC(F)F)cc1", "Potency": "inconclusive: 12.6 µM [inhibitor, partial curve, poor fit]"}
    ]}
  ]
}
